PubChem BioAssay AID1224830, NIAID – 2016
Screen: 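Host factors that control LPS-induced TNF expression in human macrophages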 (primary screen). Cells: human THP-1 monocytic leukaemia cells, TNF dual-luciferase reporter clone, PMA-differentiated to macrophage-like cells. Reagents: siRNA pool against human genes, 50 nM. Time to read-out: LPS for 4 h, given about 3 days after siRNA transfection. Challenge: bacterial LPS (TLR4 ligand), 10 ng/ml. Detection: 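TNF firefly reporter luminescence divided by renilla, normalised to the plate median, then turned into a robust z-score for each replicate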. Scale: TNF reporter robust z-score: higher = stronger TNF reporter response to LPS. Rule for the call: 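Each well counts as active if its z-score is over 2.8 or under -1.5; controls are left without a call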.
The whole screen tested about 18,000 reagents; shown is a random part of them. In the full data, about 2,900 (16%) are marked active. 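Calls are made per well; low scores hint the gene aids the LPS response, high scores that it dampens it.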 Repeated entries: four replicate wells of each siRNA pool.

gene knocked down	TNF reporter robust z-score	call
ZC3H11A	1.39	inactive
ZC3H11A	1.15	inactive
ZC3H11A	0.92	inactive
ZC3H11A	2.19	inactive
IPCEF1	-0.49	inactive
IPCEF1	0.93	inactive
IPCEF1	0.79	inactive
IPCEF1	0.53	inactive
FOXR2	-2	active
FOXR2	-1.16	inactive
FOXR2	-1	inactive
FOXR2	0.1	inactive
PURB	0.5	inactive
PURB	1.17	inactive
PURB	0.48	inactive
PURB	0.68	inactive
CADM3	-1.35	inactive
CADM3	-0.8	inactive
CADM3	-0.87	inactive
CADM3	-0.43	inactive
RNF168	-1.19	inactive
RNF168	-0.17	inactive
RNF168	0.91	inactive
RNF168	0.43	inactive
SSPN	-0.98	inactive
SSPN	-0.65	inactive
SSPN	-0.49	inactive
SSPN	0.22	inactive
DRD2	-1.06	inactive
DRD2	-0.93	inactive
DRD2	-0.94	inactive
DRD2	-0.38	inactive
C6orf15	1.93	inactive
C6orf15	0.78	inactive
C6orf15	1.16	inactive
C6orf15	1.9	inactive
PARP8	0.05	inactive
PARP8	0.53	inactive
PARP8	0.84	inactive
PARP8	1.5	inactive
IQCN	-1.1	inactive
IQCN	-0.95	inactive
IQCN	-0.8	inactive
IQCN	-0.74	inactive
KCNMB4	-0.42	inactive
KCNMB4	1.29	inactive
KCNMB4	1.64	inactive
KCNMB4	0.35	inactive
OR5B3	-0.3	inactive
OR5B3	-0.8	inactive
OR5B3	-1.45	inactive
OR5B3	-0.36	inactive
ADAD1	-0.49	inactive
ADAD1	-0.68	inactive
ADAD1	-0.35	inactive
ADAD1	0.08	inactive
CCDC24	2.31	inactive
CCDC24	0.32	inactive
CCDC24	0.59	inactive
CCDC24	-0.73	inactive
MYL7	-1.6	active
MYL7	-1.15	inactive
MYL7	-1.18	inactive
MYL7	-1.07	inactive
RPS6KA6	-0.07	inactive
RPS6KA6	0	inactive
RPS6KA6	0.37	inactive
RPS6KA6	0.99	inactive

A stretch of the results above, as a working copy:
gene knocked down	TNF reporter robust z-score	call
CADM3	-0.43	inactive
RNF168	-1.19	inactive
RNF168	-0.17	inactive
RNF168	0.91	inactive
RNF168	0.43	inactive
SSPN	-0.98	inactive
SSPN	-0.65	inactive
SSPN	-0.49	inactive
SSPN	0.22	inactive
DRD2	-1.06	inactive
DRD2	-0.93	inactive
DRD2	-0.94	inactive
DRD2	-0.38	inactive
C6orf15	1.93	inactive

More results:
gene knocked down	TNF reporter robust z-score	call
CRHR2	0.13	inactive
CRHR2	0.17	inactive
CRHR2	-0.15	inactive
CRHR2	0.44	inactive
TINAGL1	0.33	inactive
TINAGL1	1.95	inactive
TINAGL1	6.28	active
TINAGL1	-0.74	inactive
RPRML	-0.91	inactive
RPRML	-1.22	inactive
RPRML	-0.71	inactive
RPRML	0	inactive
NETO2	0.17	inactive
NETO2	0.33	inactive
NETO2	0.56	inactive
NETO2	0.23	inactive
CTSA	-0.83	inactive
CTSA	-0.17	inactive
CTSA	-0.73	inactive
CTSA	3.44	active
SLC22A2	0.21	inactive
SLC22A2	-1.35	inactive
SLC22A2	-0.46	inactive
SLC22A2	-0.83	inactive
YME1L1	0.34	inactive
YME1L1	0.72	inactive
YME1L1	0.23	inactive
YME1L1	-0.1	inactive
SOX9	1.77	inactive
SOX9	1.95	inactive
SOX9	1.39	inactive
SOX9	2	inactive
PRMT2IP	-0.46	inactive
PRMT2IP	0.65	inactive
PRMT2IP	-0.24	inactive
PRMT2IP	-0.45	inactive
HDHD5	1.03	inactive
HDHD5	1.51	inactive
HDHD5	1.42	inactive
HDHD5	2.14	inactive
HCFC2	1.33	inactive
HCFC2	1.37	inactive
HCFC2	1.64	inactive
HCFC2	0.29	inactive
